Assay results as given in PubChem BioAssay AID720504 (National Center for Advancing Translational Sciences (NCATS), 2013).
In all, about 360,000 compounds went through this assay and about 10,000 (2.8%) were called active. The source calls these results inconclusive, neither active nor inactive. Calls follow the shape of the dose curve; as a rule, active = well fitted inhibition curve with a large enough effect; inconclusive = small, poorly fitted or top-dose-only effect; inactive = flat fitted curve, though single readings scatter.

The chains behind the UniProt entries cited, without tags or fusion partners.
UniProt P53350, whole entry: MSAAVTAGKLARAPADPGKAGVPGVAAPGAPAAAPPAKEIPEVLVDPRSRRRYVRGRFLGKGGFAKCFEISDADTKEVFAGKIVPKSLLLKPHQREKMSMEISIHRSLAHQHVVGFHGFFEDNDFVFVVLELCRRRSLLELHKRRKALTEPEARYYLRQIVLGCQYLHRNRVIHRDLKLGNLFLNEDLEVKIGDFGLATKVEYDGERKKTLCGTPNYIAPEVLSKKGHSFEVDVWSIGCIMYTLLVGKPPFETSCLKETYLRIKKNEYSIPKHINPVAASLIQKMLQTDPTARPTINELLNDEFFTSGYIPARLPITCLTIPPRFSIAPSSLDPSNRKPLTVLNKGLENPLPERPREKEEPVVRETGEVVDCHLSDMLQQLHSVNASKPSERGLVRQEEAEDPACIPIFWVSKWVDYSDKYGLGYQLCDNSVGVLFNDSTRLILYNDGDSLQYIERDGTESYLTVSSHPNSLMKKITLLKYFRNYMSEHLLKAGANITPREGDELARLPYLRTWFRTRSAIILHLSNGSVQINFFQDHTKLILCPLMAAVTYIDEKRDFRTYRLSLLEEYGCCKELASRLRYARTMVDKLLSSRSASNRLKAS

target: Serine/threonine-protein kinase PLK1 (Homo sapiens) (UniProt P53350); assay: qHTS for Inhibitors of PLK1-PDB (polo-like kinase 1 - polo-box domain): Primary Screen; conditions: Plk1 PBD binding of FITC phosphopeptide, fluorescence polarization; also: nearly all actives have a fitted effect of over 65% in size
Potency is read from the fitted curve at half-maximal effect.

**Q.** O=[N+]([O-])c1ccc2c(c1)C=Nc1ccccc1O2 was tested. Which Potency did it give?
**A.** The Potency was inconclusive: 13.4 µM.
